## Screening data, single-dose tests

The chains behind the UniProt entries cited, without tags or fusion partners.
UniProt I6X8D2, whole entry: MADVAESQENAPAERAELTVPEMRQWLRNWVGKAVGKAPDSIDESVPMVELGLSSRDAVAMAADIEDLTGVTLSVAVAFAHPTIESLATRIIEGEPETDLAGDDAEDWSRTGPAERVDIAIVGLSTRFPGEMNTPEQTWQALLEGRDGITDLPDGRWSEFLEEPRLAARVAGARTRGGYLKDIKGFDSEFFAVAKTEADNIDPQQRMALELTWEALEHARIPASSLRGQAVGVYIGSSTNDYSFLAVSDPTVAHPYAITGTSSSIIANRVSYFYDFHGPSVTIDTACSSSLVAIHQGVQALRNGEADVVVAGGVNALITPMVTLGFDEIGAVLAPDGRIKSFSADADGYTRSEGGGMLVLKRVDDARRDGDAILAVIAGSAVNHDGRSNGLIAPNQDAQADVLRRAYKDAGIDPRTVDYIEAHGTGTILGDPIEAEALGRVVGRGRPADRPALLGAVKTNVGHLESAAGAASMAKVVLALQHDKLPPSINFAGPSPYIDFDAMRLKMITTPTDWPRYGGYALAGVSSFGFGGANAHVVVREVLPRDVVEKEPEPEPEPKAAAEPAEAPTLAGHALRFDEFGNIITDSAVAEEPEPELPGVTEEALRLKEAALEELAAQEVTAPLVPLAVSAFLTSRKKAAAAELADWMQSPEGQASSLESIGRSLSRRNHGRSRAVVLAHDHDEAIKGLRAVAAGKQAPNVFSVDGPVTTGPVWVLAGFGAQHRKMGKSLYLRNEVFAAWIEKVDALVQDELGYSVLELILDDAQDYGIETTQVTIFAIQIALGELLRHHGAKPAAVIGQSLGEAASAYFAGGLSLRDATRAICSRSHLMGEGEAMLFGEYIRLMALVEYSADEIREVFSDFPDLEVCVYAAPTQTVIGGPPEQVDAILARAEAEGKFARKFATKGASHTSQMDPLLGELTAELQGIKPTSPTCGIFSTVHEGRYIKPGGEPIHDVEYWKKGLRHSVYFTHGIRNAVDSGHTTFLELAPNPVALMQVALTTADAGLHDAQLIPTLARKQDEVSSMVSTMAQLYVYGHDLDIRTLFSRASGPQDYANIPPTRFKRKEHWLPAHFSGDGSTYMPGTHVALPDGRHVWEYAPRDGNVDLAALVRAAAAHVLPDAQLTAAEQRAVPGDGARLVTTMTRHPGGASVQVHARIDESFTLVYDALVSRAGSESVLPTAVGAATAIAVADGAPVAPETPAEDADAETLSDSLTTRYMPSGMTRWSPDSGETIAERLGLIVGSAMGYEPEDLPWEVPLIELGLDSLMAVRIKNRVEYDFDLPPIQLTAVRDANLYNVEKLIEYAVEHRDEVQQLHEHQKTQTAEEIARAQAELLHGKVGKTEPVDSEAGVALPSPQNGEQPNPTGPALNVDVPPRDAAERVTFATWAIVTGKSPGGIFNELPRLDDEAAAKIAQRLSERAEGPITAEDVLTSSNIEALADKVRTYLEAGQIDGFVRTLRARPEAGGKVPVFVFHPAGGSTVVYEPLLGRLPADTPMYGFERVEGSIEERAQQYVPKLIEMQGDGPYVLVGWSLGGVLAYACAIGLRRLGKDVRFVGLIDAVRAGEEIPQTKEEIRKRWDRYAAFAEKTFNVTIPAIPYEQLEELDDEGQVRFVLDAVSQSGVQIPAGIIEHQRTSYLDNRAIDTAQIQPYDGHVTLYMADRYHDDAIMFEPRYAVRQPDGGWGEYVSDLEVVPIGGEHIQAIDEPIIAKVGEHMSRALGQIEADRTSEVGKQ

Data taken from ChEMBL document CHEMBL3988442, “University of Dundee, Small-Polar-MMV Screening Library” (2021).

Results are given as percent effect. The controls that fix the scale are not given in the record; negative values are as filed. The compounds are a random part of those screened.

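Enzyme assay of the thioesterase domain of polyketide synthase 13; the read-out is not stated. Target: Polyketide synthase Pks13, Mycobacterium tuberculosis (UniProt I6X8D2). Compounds at 30 µM. The record gives no direction; the compounds picked for IC50 retests had high values, so higher reads as stronger inhibition. Of about 67,000 compounds tested this way, about 300 (0.46%) reached 50% or more in at least one test.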

| # | structure | effect |
|---|---|---|
| 1 | `COc1ccc2c(ccn2CCC(=O)NCCCC(=O)O)c1` | -1.081 |
| 2 | `CC(C)=CCN1C[C@H]2CC[C@@H]1CN(CCC(=O)NCc1ccco1)C2` | 15.89 |
| 3 | `O=C(NCc1c(F)cccc1F)C1CN(C(=O)c2cnccn2)C1` | -32.28 |
| 4 | `Cn1cnnc1C1CCCN(Cc2nc(Cc3ccccc3)no2)C1` (stereo unspecified) | -12.22 |
| 5 | `COc1ccccc1NC(=O)N1CCCC1c1ccco1` (stereo unspecified) | -26.47 |
| 6 | `COc1ccc(CN2C[C@@H](CN(C)CCO)[C@@H](CO)C2)cc1Cl` | -20.12 |
| 7 | `Cc1csc(N2CCCN(Cc3noc(C)n3)CC2)n1` | 7.097 |
| 8 | `CCc1nc(C2CCCN2C(=O)c2cnc[nH]2)no1` (stereo unspecified) | -20.12 |
| 9 | `CC(=O)N1CCCC(C(=O)N2CCC(=Cc3cccc(F)c3)CC2)C1` (stereo unspecified) | -7.378 |
| 10 | `Cc1nnc(CN2CCOC(c3ccc(Cl)c(Cl)c3)C2)o1` (stereo unspecified) | 9.778 |
| 11 | `Cn1cc(C(=O)N2CC[C@@]3(O)CCN(C(=O)C4CCCC4)C[C@H]3C2)cn1` | -22.87 |
| 12 | `CC(C)(C)n1cc(C2=CCN(CCNC(=O)c3ccccc3)CC2)cn1` | -13.71 |
| 13 | `CCn1nc(C(=O)N2CCCC2c2noc(C)n2)ccc1=O` (stereo unspecified) | -15.25 |
| 14 | `O=C(c1ccoc1)N1CCC2(C1)CN(c1ncc(F)cn1)C2` | -0.2798 |
| 15 | `Cn1cnc2nc3n(c2c1=O)CCC3` | -17.55 |
| 16 | `COCCN1CCCC1Cn1nc(C)cc1C` (stereo unspecified) | -35.54 |
| 17 | `CCN(Cc1ccc(C#N)cc1F)C(=O)C(C)(C)C` | -19.22 |
| 18 | `C[C@H]1C[C@@H]2CCN(C(=O)c3ccccn3)C[C@H]2O1` | -7.196 |
| 19 | `COCC1c2nnn(CC3CC3)c2CCN1C(=O)c1cc(C)[nH]c1C` (stereo unspecified) | -7.533 |
| 20 | `FC1(F)CCN(Cc2cccnc2)CC12CCN(c1ccccc1)C2` (stereo unspecified) | 27.64 |
| 21 | `Cn1cc(N2C[C@@H]3CN(Cc4ccccn4)C[C@@H]3C2=O)cn1` | -49.99 |
| 22 | `CCc1cc(NC(CCO)c2ccc(OC)cc2)n2nccc2n1` (stereo unspecified) | -22.06 |
| 23 | `O=c1n(Cc2ncccn2)nc(C2CCNCC2)n1-c1ccccc1` | -22.93 |
| 24 | `O=C(c1ccc2c(c1)OCO2)N1CCCC(Nc2ccc(F)cc2)C1` (stereo unspecified) | -20.62 |
| 25 | `CCC(C)NC(=O)c1sccc1-n1cnnn1` (stereo unspecified) | -7.32 |
| 26 | `CCn1c(C)cc(C(=O)NCc2cccc(S(=O)(=O)NC)c2)c1C` | -12.22 |
| 27 | `COc1ccc(CN2CC[C@@H](N)[C@@H](OC)C2)cc1Cn1cncn1` | -30.27 |
| 28 | `CN(CC(=O)Nc1nncs1)CC1CCCN1c1cccnn1` (stereo unspecified) | -11.04 |
| 29 | `Cc1noc(C)c1CC(=O)N1CCCC(n2ccnc2C)C1` (stereo unspecified) | -6.747 |
| 30 | `CS(=O)(=O)N1CCCC(n2nnn(-c3ccccc3)c2=O)C1` (stereo unspecified) | 0.5776 |
| 31 | `Cc1nn(C)c(C)c1C(=O)N1CCOCC1CC(=O)c1ccco1` (stereo unspecified) | -23.1 |
| 32 | `CN1C[C@@H]2CC[C@H](CC1=O)N2C(=O)c1cc2ccccc2[nH]c1=O` | -6.265 |
| 33 | `COCCN1CC2(CCCN(C(=O)CCCc3cccs3)C2)CCC1=O` (stereo unspecified) | -30.04 |
| 34 | `Cc1cc(N2Cc3cnn(CCO)c3C2)nc(-c2ccccc2)n1` | -17.78 |
| 35 | `CC(=O)N1CCc2cc(C(=O)O)c(-c3ccsc3)nc2CC1` | -32.81 |
| 36 | `CNc1ncccc1CN1CCN(C(C)=O)CC(C(N)=O)C1` (stereo unspecified) | 1.308 |
| 37 | `O=S(=O)(CCCn1cncn1)Cc1ccc(F)cc1Cl` | -29.55 |
| 38 | `Cn1ccc(CN2CCC(NC(=O)NC3CCCCC3)CC2)cc1=O` | -10.72 |
| 39 | `O=C(NCCN1CCCC(CO)C1)c1ccc2sccc2c1` (stereo unspecified) | -18.67 |
| 40 | `O=C(NCCNc1ncccn1)C1CCN(C(=O)C2CC2)CC1` | -7.406 |
| 41 | `O=c1c2cn[nH]c2nc(SCCN2CCOCC2)n1-c1ccccc1` | -13.69 |
| 42 | `CCOC1CCN(C(=O)c2cnn(-c3ccccc3Cl)c2)CC1` | 3.323 |
| 43 | `CN(C(=O)OC(C)(C)C)C1CCN(C(=O)c2ccc(Cl)o2)C1` (stereo unspecified) | -34.87 |
| 44 | `Cn1cccc1C(=O)N[C@@H]1CN(S(C)(=O)=O)[C@@H]2COC[C@@H]21` | -32.23 |
| 45 | `Cc1ccc(C(=O)N2C[C@H](N3CCOCC3)[C@@H]3OCCC[C@@H]32)cn1` | -8.983 |
| 46 | `CC(C#N)CNC(=O)Nc1ccc(-c2ccc[nH]2)cc1` (stereo unspecified) | -18.42 |
| 47 | `CCc1nc(C2CCCN2C(=O)CCc2cscn2)no1` (stereo unspecified) | -5.355 |
| 48 | `O=C(O)c1nc(SCc2ccccc2)ncc1Br` | 8.571 |
| 49 | `CC(=O)N1C[C@H](NC(=O)c2csc(C(C)C)c2)[C@@H](C(C)C)C1` | 14.35 |
| 50 | `CC1CN(c2ccc(NC(=O)Cn3cccn3)cc2)CCO1` (stereo unspecified) | -6.727 |
| 51 | `Cc1nn(C)c2nc3c(c(C(=O)/N=c4\[nH]nc(C(C)C)s4)c12)CCC3` | 1.578 |
| 52 | `COCC(=O)N1CCCC1c1nccnc1Nc1nc(C)cs1` (stereo unspecified) | 11.56 |
| 53 | `Nc1ncc(C(=O)N2CCC(O)(CO)CC2)c(-c2ccccc2)n1` | -22.89 |
| 54 | `CCc1noc(C2CCCCN2C(=O)c2ccoc2C)n1` (stereo unspecified) | -15.35 |
| 55 | `CC(NCC1CCN(CCO)CC1)c1cccnc1` (stereo unspecified) | -19.96 |
| 56 | `COc1cccc2c1OCC(C(=O)NCCn1nc(C)c(Cl)c1C)C2` (stereo unspecified) | -8.72 |
| 57 | `CC(=O)N1CCCN(C(=O)NCCCc2cn[nH]c2C)CC1` | -21.84 |
| 58 | `Nc1nccnc1C(=O)NC1CCCN(Cc2c(F)cccc2F)C1` (stereo unspecified) | -3.459 |
| 59 | `c1cncc(COCc2nnc3n2CCN(CC2CC2)C3)c1` | -10.24 |
| 60 | `O=C(c1ccsc1)N1CCc2onc(CN3CCOCC3)c2C1` | 7.976 |
| 61 | `CCS(=O)(=O)c1ccccc1N1CCC(NC(=O)C(C)C)CC1` | -19.38 |
| 62 | `Cc1c(-c2ccccc2)ncn1CCCNc1cccnc1` | -42.64 |
| 63 | `CCOCC1CN(C(=O)Cc2ccccn2)Cc2cnn(CC)c21` (stereo unspecified) | -6.9 |
| 64 | `Cc1ccc(N2C[C@@H]3OCCN(Cc4c(C)noc4C)[C@@H]3C2)nn1` | -3.067 |
| 65 | `O=C(c1ccoc1)N1CCC(NCc2ccccc2Cl)CC1` | -3.806 |
| 66 | `C[C@H](NC(=O)N1CCC(Cc2ccccc2)CC1)C(=O)O` | -8.938 |
| 67 | `Cc1nc2ccccc2n1CCNCc1cccc(O)c1` | -0.4534 |
| 68 | `NC(=O)C1CCCN1Cc1ccccc1NC(=O)CC(F)(F)F` (stereo unspecified) | -8.668 |
| 69 | `Cc1cc(NS(=O)(=O)CC2CCCCO2)ccc1F` (stereo unspecified) | -20.11 |
| 70 | `Clc1ccc(CN2CCCC2Cn2cncn2)c2ncccc12` (stereo unspecified) | -26.89 |
| 71 | `CNC(=O)CCN(C)CC1(c2ccc(Br)cc2)CC1` | -5.144 |
| 72 | `COc1cc(C(=O)N(Cc2cccs2)C2CC2)cc2c1OCCO2` | -11.56 |
| 73 | `CCCc1cc(N2CCCC2Cn2nc(C)nc2C)n2ncnc2n1` (stereo unspecified) | -40.46 |
| 74 | `Fc1ccc(N2CCN(CCCc3cn[nH]c3)CC2)cc1` | -24.75 |
| 75 | `OCCN(Cc1nc(-c2ccc3c(c2)OCO3)no1)Cc1cccs1` | 32.47 |
| 76 | `Cc1cccc(CNc2cncc(-n3cccn3)n2)c1` | -60.24 |
| 77 | `O=C(c1ccncc1)N1C[C@@H]2CC[C@H](C1)N(C(=O)N1CCOCC1)C2` | -14.07 |
| 78 | `O[C@H]1CC[C@@H](Cc2cc(-c3ccccn3)on2)O[C@@H]1CNCC1CC1` | -34.97 |
| 79 | `CN(C)C(=O)CCC1CCCN(Cc2cccc(-c3ccccn3)c2)C1` (stereo unspecified) | 22.16 |
| 80 | `Cc1cc(-c2ccccc2C(=O)O)nc(C2CCCN2S(C)(=O)=O)n1` (stereo unspecified) | -6.635 |
| 81 | `Cc1ccc(CN2CCN(C(=O)CCc3nc(Cl)n[nH]3)CC2=O)cc1` | -9.511 |
| 82 | `CCNC(=O)Nc1c(C)cnn1Cc1cc(F)ccc1F` | -38.57 |
| 83 | `Cc1ocnc1C(=O)N(Cc1cccnc1)C[C@@H]1CCC(=O)N1` | -36.3 |
| 84 | `CN(C)c1nc2c(c(N3CCc4c(c(CO)nn4C)C3)n1)CCNC2` | -28.01 |
| 85 | `CCCn1cc(NC(=O)NCC2CCS(=O)(=O)C2)nn1` (stereo unspecified) | -15.26 |

Once more, the final 5:

| structure | effect |
|---|---|
| `Cc1ccc(CN2CCN(C(=O)CCc3nc(Cl)n[nH]3)CC2=O)cc1` | -9.511 |
| `CCNC(=O)Nc1c(C)cnn1Cc1cc(F)ccc1F` | -38.57 |
| `Cc1ocnc1C(=O)N(Cc1cccnc1)C[C@@H]1CCC(=O)N1` | -36.3 |
| `CN(C)c1nc2c(c(N3CCc4c(c(CO)nn4C)C3)n1)CCNC2` | -28.01 |
| `CCCn1cc(NC(=O)NCC2CCS(=O)(=O)C2)nn1` (stereo unspecified) | -15.26 |